PubChem BioAssay AID1259405 – NCATS | 2018
The whole screen tested about 50,000 reagents; this is an unselected part. About 4,000 of them (8%) count as active. 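Mouse siRNA library applied to hamster cells; one well for each siRNA.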 The numbers tell different reagents against one gene apart. Reagent sequences are not shown.

Aim: 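Mouse-designed siRNAs used to find CHO productivity engineering targets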 (primary screen)
Cell system: Chinese hamster CHO-K1 ovary cells with stable secreted eGFP expression
Reagent: single siRNA against mouse genes, 0.8 pmol siRNA per well (2 µl of 400 nM stock)
Time to read-out: 3 days
Read-out: 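Per-well intracellular GFP measured by laser scanning cytometry, plus viability from ATP luminescence, each relative to plate median of non-targeting control wells, in %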
Direction: GFP, % of control: higher = more GFP per well, higher productivity; viability (ATP), % of control: higher = more viable cells (more ATP)
Call rule: 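Called active when intracellular GFP, relative to negative control, is at or above 120%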

Nxpe5 (neurexophilin and PC-esterase domain family, member 5) #1 — GFP, % of control = 42.4; viability (ATP), % of control = 52.9; outcome = inactive
Nxpe5 (neurexophilin and PC-esterase domain family, member 5) #2 — GFP, % of control = 90; viability (ATP), % of control = 73.5; outcome = inactive
Nxpe5 (neurexophilin and PC-esterase domain family, member 5) #3 — GFP, % of control = 161; viability (ATP), % of control = 86.3; outcome = active
Galnt14 (polypeptide N-acetylgalactosaminyltransferase 14) #1 — GFP, % of control = 94.3; viability (ATP), % of control = 63.4; outcome = inactive
Galnt14 (polypeptide N-acetylgalactosaminyltransferase 14) #2 — GFP, % of control = 103; viability (ATP), % of control = 155; outcome = inactive
Galnt14 (polypeptide N-acetylgalactosaminyltransferase 14) #3 — GFP, % of control = 103; viability (ATP), % of control = 141; outcome = inactive
Blm (Bloom syndrome, RecQ like helicase) #1 — GFP, % of control = 178; viability (ATP), % of control = 118; outcome = active
Blm (Bloom syndrome, RecQ like helicase) #2 — GFP, % of control = 56.7; viability (ATP), % of control = 57; outcome = inactive
Blm (Bloom syndrome, RecQ like helicase) #3 — GFP, % of control = 84.6; viability (ATP), % of control = 88.5; outcome = inactive
Scrn3 (secernin 3) #1 — GFP, % of control = 85.4; viability (ATP), % of control = 95.9; outcome = inactive
Scrn3 (secernin 3) #2 — GFP, % of control = 46.2; viability (ATP), % of control = 72.1; outcome = inactive
Scrn3 (secernin 3) #3 — GFP, % of control = 96.1; viability (ATP), % of control = 78.7; outcome = inactive
Ss18l2 (SS18, nBAF chromatin remodeling complex subunit like 2) #1 — GFP, % of control = 100; viability (ATP), % of control = 91.2; outcome = inactive
Ss18l2 (SS18, nBAF chromatin remodeling complex subunit like 2) #2 — GFP, % of control = 79.4; viability (ATP), % of control = 73.1; outcome = inactive
Ss18l2 (SS18, nBAF chromatin remodeling complex subunit like 2) #3 — GFP, % of control = 73.1; viability (ATP), % of control = 49.3; outcome = inactive
Hbq1a (hemoglobin, theta 1A) #1 — GFP, % of control = 51.3; viability (ATP), % of control = 51.5; outcome = inactive
Hbq1a (hemoglobin, theta 1A) #2 — GFP, % of control = 60.2; viability (ATP), % of control = 60; outcome = inactive
Hbq1a (hemoglobin, theta 1A) #3 — GFP, % of control = 84.7; viability (ATP), % of control = 83.3; outcome = inactive
Dusp28 (dual specificity phosphatase 28) #1 — GFP, % of control = 76.5; viability (ATP), % of control = 45.3; outcome = inactive
Dusp28 (dual specificity phosphatase 28) #2 — GFP, % of control = 129; viability (ATP), % of control = 69.2; outcome = active
Dusp28 (dual specificity phosphatase 28) #3 — GFP, % of control = 80; viability (ATP), % of control = 85.2; outcome = inactive
Slc5a8 #1 — GFP, % of control = 71.6; viability (ATP), % of control = 46.6; outcome = inactive
Slc5a8 #2 — GFP, % of control = 81.8; viability (ATP), % of control = 62.2; outcome = inactive
Slc5a8 #3 — GFP, % of control = 115; viability (ATP), % of control = 69; outcome = inactive
Eif3j1 (eukaryotic translation initiation factor 3, subunit J1) #1 — GFP, % of control = 64.7; viability (ATP), % of control = 80.3; outcome = inactive
Eif3j1 (eukaryotic translation initiation factor 3, subunit J1) #2 — GFP, % of control = 57; viability (ATP), % of control = 66.8; outcome = inactive
Eif3j1 (eukaryotic translation initiation factor 3, subunit J1) #3 — GFP, % of control = 103; viability (ATP), % of control = 84.7; outcome = inactive
Rapgef5 (Rap guanine nucleotide exchange factor (GEF) 5) #1 — GFP, % of control = 94; viability (ATP), % of control = 88.8; outcome = inactive
Rapgef5 (Rap guanine nucleotide exchange factor (GEF) 5) #2 — GFP, % of control = 72; viability (ATP), % of control = 61.2; outcome = inactive
Rapgef5 (Rap guanine nucleotide exchange factor (GEF) 5) #3 — GFP, % of control = 76; viability (ATP), % of control = 57.6; outcome = inactive
Nrp2 (neuropilin 2) #1 — GFP, % of control = 52.3; viability (ATP), % of control = 40.7; outcome = inactive
Nrp2 (neuropilin 2) #2 — GFP, % of control = 62.2; viability (ATP), % of control = 82.1; outcome = inactive
Nrp2 (neuropilin 2) #3 — GFP, % of control = 81; viability (ATP), % of control = 68.7; outcome = inactive
Nabp1 (nucleic acid binding protein 1) #1 — GFP, % of control = 48.7; viability (ATP), % of control = 74.1; outcome = inactive
Nabp1 (nucleic acid binding protein 1) #2 — GFP, % of control = 73.6; viability (ATP), % of control = 48; outcome = inactive
Nabp1 (nucleic acid binding protein 1) #3 — GFP, % of control = 81.5; viability (ATP), % of control = 71.2; outcome = inactive
Caskin1 (CASK interacting protein 1) #1 — GFP, % of control = 91.2; viability (ATP), % of control = 86.8; outcome = inactive
Caskin1 (CASK interacting protein 1) #2 — GFP, % of control = 120; viability (ATP), % of control = 83.1; outcome = active
Prkcz (protein kinase C, zeta) #1 — GFP, % of control = 77.6; viability (ATP), % of control = 62.8; outcome = inactive
Prkcz (protein kinase C, zeta) #2 — GFP, % of control = 87; viability (ATP), % of control = 87.4; outcome = inactive
Prkcz (protein kinase C, zeta) #3 — GFP, % of control = 69.3; viability (ATP), % of control = 78.8; outcome = inactive

Laid out differently: results already given.
{"Gene":"Dusp28 (dual specificity phosphatase 28)","reagent":1,"GFP, % of control":76.5,"viability (ATP), % of control":45.3,"outcome":"inactive"}
{"Gene":"Dusp28 (dual specificity phosphatase 28)","reagent":2,"GFP, % of control":129,"viability (ATP), % of control":69.2,"outcome":"active"}
